This is one part of the list. Residues, ends and D or L forms follow the SMILES beside them. *: point of attachment. Cbz = O=C(OCc1ccccc1)*
What was measured:
Test in all cases: log2 fold change, soluble protein after heating vs DMSO (PISA); higher = thermal stabilisation; K562 cells, 10 uM, 30 min; active = over 0.2 and 3.5 SD of the protein, either way, in both replicates (recomputed)
IRAK-1-4 Inhibitor I = compound: C1COCCN1CCN2C3=CC=CC=C3N=C2NC(=O)C4=CC(=CC=C4)[N+](=O)[O-] [IRAK-1-4 Inhibitor I]
Procedure, shortened: (§1)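 Soluble protein was quantified by TMTpro 16plex LC-MS/MS after channel sums were equalised. It was obtained as the supernatant after 21,000xg for 90 min from pooled aliquots of K562 cells (2×10^6 cells/mL, 10 μM compound, 30 min) heated for 3 min across 48°C-58°C and extracted in PBS with 0.5% NP-40 at 4°C. Thermal stability values are relative to control samples and come from duplicates. They are given as log2 fold changes.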

Amino acid sequences for entries named in this document (tags omitted). A change or cut given only in a name is not applied to a line headed by its entry.
UniProt O75477: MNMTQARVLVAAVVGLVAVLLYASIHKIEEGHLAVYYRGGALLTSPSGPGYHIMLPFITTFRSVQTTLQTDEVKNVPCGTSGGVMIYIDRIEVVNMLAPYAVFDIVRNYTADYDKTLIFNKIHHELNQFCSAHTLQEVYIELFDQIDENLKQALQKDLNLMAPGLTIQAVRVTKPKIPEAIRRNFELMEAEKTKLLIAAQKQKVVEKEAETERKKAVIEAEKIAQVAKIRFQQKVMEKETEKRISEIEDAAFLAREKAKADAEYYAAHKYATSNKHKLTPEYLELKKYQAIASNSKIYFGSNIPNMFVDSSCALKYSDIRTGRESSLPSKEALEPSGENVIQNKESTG
UniProt Q5VUB5: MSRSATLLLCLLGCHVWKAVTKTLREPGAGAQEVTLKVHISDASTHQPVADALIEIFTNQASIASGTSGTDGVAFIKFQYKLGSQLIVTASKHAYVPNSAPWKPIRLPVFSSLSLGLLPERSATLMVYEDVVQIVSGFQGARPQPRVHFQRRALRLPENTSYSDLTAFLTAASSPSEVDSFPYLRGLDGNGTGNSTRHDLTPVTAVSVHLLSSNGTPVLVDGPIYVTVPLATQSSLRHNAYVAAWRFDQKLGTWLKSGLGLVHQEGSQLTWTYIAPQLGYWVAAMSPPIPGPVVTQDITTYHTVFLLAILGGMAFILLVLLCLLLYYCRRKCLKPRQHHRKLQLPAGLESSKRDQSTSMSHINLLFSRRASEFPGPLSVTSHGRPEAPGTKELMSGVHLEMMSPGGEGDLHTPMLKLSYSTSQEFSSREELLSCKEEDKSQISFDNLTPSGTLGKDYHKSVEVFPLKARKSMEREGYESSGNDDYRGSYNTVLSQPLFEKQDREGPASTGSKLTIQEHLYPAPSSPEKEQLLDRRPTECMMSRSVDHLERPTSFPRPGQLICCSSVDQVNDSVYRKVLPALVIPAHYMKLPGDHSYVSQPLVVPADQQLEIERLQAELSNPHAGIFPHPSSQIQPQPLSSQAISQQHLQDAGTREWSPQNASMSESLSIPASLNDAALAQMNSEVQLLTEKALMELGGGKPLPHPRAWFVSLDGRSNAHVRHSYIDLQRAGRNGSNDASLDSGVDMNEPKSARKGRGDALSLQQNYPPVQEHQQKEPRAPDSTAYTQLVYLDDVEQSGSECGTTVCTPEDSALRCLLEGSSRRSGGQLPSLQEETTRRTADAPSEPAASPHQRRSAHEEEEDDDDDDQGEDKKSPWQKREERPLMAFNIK
UniProt Q9NWS6: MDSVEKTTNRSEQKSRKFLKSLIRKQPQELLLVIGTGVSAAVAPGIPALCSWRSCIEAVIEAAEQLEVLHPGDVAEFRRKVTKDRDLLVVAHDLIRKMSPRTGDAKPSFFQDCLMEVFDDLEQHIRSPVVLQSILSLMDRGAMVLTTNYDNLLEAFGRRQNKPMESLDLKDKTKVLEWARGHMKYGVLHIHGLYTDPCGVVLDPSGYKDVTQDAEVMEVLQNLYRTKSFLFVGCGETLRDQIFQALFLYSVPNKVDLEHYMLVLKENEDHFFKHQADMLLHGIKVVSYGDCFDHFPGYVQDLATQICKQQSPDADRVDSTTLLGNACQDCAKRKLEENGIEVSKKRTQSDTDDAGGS
UniProt O43909: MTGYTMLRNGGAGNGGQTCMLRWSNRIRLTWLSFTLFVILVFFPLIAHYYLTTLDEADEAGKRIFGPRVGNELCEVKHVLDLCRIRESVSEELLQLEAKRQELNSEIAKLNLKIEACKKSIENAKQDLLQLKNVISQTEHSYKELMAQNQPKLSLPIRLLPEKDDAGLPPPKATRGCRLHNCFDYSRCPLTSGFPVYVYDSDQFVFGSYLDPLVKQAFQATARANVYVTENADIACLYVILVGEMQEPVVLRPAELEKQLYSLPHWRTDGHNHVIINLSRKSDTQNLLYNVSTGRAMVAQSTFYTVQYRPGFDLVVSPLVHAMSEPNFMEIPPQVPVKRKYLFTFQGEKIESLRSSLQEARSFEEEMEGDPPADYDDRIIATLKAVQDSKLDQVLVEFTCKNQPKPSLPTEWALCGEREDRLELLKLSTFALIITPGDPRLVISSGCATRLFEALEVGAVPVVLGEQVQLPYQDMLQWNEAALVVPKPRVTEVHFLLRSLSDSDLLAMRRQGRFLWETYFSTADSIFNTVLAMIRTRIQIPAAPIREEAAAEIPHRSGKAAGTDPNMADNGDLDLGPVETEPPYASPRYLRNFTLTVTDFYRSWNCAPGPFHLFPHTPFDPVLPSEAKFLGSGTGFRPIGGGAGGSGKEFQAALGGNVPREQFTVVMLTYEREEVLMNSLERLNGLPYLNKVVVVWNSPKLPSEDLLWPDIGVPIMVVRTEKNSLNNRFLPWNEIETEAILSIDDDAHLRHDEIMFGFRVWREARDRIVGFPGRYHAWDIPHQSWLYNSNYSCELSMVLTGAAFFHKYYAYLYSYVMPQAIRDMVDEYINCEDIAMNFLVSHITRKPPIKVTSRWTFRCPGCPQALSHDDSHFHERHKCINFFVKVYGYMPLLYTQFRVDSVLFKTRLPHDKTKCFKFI
UniProt O60447: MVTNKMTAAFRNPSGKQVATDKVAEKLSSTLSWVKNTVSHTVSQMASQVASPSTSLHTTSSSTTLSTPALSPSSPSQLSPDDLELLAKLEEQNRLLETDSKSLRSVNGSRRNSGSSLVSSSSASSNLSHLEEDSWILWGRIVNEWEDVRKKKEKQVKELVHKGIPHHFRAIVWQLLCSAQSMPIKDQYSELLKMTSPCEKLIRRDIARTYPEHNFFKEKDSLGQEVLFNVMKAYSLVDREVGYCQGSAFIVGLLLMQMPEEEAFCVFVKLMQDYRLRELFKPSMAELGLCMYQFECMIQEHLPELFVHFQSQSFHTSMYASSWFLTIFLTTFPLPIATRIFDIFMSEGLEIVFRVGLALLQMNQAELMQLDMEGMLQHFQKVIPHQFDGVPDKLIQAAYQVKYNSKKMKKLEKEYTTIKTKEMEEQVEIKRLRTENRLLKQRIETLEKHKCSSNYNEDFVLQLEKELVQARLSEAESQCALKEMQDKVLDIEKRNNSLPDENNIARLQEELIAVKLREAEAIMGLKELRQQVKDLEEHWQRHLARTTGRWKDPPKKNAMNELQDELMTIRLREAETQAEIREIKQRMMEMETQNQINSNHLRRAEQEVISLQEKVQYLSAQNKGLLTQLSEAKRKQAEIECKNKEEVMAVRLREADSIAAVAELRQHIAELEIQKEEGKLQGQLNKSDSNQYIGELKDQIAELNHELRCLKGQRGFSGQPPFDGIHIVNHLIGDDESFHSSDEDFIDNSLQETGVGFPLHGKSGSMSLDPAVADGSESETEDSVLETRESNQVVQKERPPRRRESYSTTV
UniProt P05160: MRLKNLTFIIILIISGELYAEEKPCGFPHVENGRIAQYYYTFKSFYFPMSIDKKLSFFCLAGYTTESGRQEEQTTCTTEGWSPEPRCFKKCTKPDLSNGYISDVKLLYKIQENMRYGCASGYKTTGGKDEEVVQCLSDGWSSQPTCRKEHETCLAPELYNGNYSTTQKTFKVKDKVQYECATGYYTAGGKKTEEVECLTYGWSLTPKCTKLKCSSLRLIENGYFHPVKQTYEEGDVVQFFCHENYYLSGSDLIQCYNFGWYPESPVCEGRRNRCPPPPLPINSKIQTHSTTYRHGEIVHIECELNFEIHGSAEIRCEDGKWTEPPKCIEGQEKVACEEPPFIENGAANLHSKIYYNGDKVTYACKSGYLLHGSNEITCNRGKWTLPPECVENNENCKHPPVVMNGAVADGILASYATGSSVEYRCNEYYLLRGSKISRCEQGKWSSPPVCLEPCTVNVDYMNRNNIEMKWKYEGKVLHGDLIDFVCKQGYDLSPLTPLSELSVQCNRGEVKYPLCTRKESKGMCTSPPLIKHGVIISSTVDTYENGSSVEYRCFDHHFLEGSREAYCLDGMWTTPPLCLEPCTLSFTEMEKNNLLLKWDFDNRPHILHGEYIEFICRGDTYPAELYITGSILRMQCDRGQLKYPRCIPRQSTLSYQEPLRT
UniProt Q9BQ89: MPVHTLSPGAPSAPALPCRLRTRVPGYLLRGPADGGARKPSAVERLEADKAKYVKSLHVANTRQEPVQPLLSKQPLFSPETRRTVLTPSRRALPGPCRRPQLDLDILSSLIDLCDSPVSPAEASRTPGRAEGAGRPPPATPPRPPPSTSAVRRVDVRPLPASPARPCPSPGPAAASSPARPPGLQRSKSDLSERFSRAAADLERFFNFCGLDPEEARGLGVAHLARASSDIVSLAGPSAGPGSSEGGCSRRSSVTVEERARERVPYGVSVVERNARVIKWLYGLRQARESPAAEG
UniProt Q96EK7: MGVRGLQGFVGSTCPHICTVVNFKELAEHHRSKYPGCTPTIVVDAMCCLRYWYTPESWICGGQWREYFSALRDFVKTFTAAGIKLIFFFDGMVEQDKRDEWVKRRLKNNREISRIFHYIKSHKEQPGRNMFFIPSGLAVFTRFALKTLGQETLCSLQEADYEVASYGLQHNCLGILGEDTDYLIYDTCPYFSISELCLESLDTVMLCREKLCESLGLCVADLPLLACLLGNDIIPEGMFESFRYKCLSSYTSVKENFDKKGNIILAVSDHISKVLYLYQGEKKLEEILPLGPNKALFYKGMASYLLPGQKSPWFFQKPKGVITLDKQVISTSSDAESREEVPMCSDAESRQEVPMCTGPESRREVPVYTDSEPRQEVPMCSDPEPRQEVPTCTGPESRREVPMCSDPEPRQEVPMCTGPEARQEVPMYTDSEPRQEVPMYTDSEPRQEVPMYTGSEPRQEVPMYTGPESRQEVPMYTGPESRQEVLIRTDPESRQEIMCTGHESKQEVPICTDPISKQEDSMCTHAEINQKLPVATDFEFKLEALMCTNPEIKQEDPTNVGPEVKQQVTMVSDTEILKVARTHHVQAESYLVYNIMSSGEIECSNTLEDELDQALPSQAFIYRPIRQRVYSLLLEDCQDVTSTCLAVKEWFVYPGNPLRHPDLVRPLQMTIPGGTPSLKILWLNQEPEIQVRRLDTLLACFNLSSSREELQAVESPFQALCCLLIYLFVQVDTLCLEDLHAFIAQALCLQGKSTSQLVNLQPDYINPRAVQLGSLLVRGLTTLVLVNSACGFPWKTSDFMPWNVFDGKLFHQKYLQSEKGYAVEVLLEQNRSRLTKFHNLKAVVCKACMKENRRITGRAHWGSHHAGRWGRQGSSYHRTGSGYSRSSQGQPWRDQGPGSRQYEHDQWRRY
UniProt P54760: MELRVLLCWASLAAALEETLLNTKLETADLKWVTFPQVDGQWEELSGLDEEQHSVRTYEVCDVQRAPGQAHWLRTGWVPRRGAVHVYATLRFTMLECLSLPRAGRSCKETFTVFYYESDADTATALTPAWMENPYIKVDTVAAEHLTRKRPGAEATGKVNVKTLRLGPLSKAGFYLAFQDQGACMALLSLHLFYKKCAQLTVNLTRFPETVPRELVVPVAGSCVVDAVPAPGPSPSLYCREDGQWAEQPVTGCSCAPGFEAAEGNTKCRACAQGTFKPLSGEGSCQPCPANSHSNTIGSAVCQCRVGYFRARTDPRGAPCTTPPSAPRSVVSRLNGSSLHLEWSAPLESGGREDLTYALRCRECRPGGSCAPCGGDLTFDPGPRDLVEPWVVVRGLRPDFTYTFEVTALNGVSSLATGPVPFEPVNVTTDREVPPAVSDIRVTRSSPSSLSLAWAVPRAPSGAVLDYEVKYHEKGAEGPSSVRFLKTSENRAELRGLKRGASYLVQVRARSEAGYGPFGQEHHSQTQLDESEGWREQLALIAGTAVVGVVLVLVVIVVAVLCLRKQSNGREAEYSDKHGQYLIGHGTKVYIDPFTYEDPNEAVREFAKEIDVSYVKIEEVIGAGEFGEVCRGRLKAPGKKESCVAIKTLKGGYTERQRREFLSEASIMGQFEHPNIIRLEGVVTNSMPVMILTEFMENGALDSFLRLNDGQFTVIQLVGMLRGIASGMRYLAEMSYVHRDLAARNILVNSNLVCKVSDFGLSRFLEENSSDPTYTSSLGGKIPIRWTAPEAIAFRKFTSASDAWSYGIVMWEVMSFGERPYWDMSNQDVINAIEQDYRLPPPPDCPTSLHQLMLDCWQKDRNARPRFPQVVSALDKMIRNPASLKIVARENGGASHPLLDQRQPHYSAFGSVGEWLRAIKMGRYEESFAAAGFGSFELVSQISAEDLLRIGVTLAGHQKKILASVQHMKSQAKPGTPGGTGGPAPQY
UniProt Q96RI0: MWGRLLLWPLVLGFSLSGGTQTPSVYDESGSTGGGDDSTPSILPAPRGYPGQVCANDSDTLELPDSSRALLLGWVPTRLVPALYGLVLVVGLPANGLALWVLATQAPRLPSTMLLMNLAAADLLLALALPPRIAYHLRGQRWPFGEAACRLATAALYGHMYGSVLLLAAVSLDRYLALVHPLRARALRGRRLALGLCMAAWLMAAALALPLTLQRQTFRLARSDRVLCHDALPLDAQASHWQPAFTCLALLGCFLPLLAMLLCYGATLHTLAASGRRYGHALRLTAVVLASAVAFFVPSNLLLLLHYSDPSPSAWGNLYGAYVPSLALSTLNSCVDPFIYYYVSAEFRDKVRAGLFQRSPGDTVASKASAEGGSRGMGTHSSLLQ

ibrutinib = compound: C=CC(=O)N1CCC[C@@H](n2nc(-c3ccc(Oc4ccccc4)cc3)c3c(N)ncnc32)C1 [ibrutinib]
Procedure, shortened: as §1

ralimetinib = compound: CC(C)(C)Cn1c(N)nc2ccc(-c3[nH]c(C(C)(C)C)nc3-c3ccc(F)cc3)nc21 [ralimetinib]
Procedure, shortened: as §1

[1] = compound: CC(C)(O)CC(=O)NCCn1ccc2ncnc(Nc3ccc(Oc4cccc(C(F)(F)F)c4)c(Cl)c3)c21
Procedure, shortened: as §1

[2] = compound: CC(C)C1=C2N=C(C=C(N2N=C1)NCC3=CC=CC=C3)NCCCCCCN
Procedure, shortened: as §1

[3] = compound: CC(C)C[C@@H](C=O)NC(=O)[C@H](CC(C)C)NC(=O)[C@H](CC(C)C)NC(=O)OCc1ccccc1
Procedure, shortened: as §1

pinometostat = compound: CC(C)N(C[C@H]1O[C@@H](n2cnc3c(N)ncnc32)[C@H](O)[C@@H]1O)[C@H]1C[C@@H](CCc2nc3cc(C(C)(C)C)ccc3[nH]2)C1 [pinometostat]
Procedure, shortened: as §1

[4] = compound: CC1=C(C(CC(=O)N1)C2=CC=C(C=C2)C(F)(F)F)C(=O)NC3=C(C=C4C(=C3)C=NN4)F
Procedure, shortened: as §1

[5] = compound: CC1=C(C2=C(C=C1)C(=O)C3=CC=CC=C3N2CCCN)C
Procedure, shortened: as §1

[6] = compound: CC(=O)c1cnc2ccc(-c3cc(Cl)c(O)c(Cl)c3)nc2c1N[C@H]1CC[C@H](CN(C)C)CC1
Procedure, shortened: as §1

Measured: log2 fold change

F10 (UniProt P00742)
inactive: IRAK-1-4 Inhibitor I 0.037 | ibrutinib 0.082 | ralimetinib -0.064 | [1] 0.079 | [2] 0.095 | [3] 0.036 | pinometostat -0.121 | [4] 0 | [5] -0.118

ERLIN1 (UniProt O75477)
inactive: IRAK-1-4 Inhibitor I -0.073 | ibrutinib -0.06 | [6] 0.105 | ralimetinib 0.054 | [1] -0.018 | [3] -0.007 | pinometostat 0.098 | [5] 0.068
active: [2] -0.269

FAM160A2 isoform 2 (UniProt Q8N612)
inactive: IRAK-1-4 Inhibitor I 0.029 | ibrutinib -0.003 | ralimetinib -0.029 | [1] -0.326 | [3] 0.013 | pinometostat 0.004 | [5] 0.102

ERAL1 (UniProt O75616)
inactive: IRAK-1-4 Inhibitor I -0.059 | ibrutinib -0.041 | [6] -0.245 | [1] 0.004 | [2] -0.138 | pinometostat -0.02 | [4] -0.135

FAM171A1 (UniProt Q5VUB5)
inactive: IRAK-1-4 Inhibitor I 0.021 | [6] 0.099 | [1] 0.046 | [2] 0.24 | pinometostat 0.002

ERI1 (UniProt Q8IV48)
inactive: IRAK-1-4 Inhibitor I -0.223 | ralimetinib 0.147 | [1] -0.045 | [3] 0.181 | pinometostat 0.231 | [5] -0.142

FADS1 (UniProt F5GYH4)
inactive: IRAK-1-4 Inhibitor I 0.02 | ibrutinib -0.093 | pinometostat 0.075 | [5] -0.097

ERCC6L (UniProt Q2NKX8)
inactive: IRAK-1-4 Inhibitor I -0.127 | ibrutinib 0.065 | [6] 0.017 | ralimetinib 0.106 | [1] 0 | [3] 0.066 | pinometostat 0.368 | [4] 0.031 | [5] 0.02

FAM118A (UniProt Q9NWS6)
inactive: IRAK-1-4 Inhibitor I -0.009 | ibrutinib 0.045 | [6] -0.212 | ralimetinib -0.21 | [1] -0.207 | [3] -0.125 | pinometostat -0.054 | [5] 0.014

ESYT2 (UniProt H7BXI1)
inactive: ibrutinib 0.01 | [6] -0.031 | [1] -0.052 | [2] -0.226 | [4] -0.036

EXTL3 (UniProt O43909)
inactive: IRAK-1-4 Inhibitor I -0.034 | ibrutinib -0.26 | [6] -0.086 | ralimetinib 0.037 | [1] 0.052 | [3] 0.008 | pinometostat -0.07 | [4] -0.066 | [5] 0.181

FADS2 (UniProt O95864)
inactive: [2] 0.061

ERCC1 isoform 3 (UniProt P07992)
inactive: ralimetinib 0.071 | [3] 0.011

EVI5 isoform 2 (UniProt O60447)
inactive: [6] -0.051 | ralimetinib 0.305 | [2] -0.481 | [3] 0.204 | [5] -0.534

FAAP20 isoform 2 (UniProt Q6NZ36)
inactive: [1] -0.021

FAM126B (UniProt Q8IXS8)
inactive: [6] 0.037 | [4] -0.184

FABP3 (UniProt P05413)
inactive: [6] -0.041

EPHX2 (UniProt E5RI53)
inactive: ibrutinib 0.085 | [1] 0.071

EXOG (UniProt Q9Y2C4)
inactive: [6] -0.004 | ralimetinib -0.113 | [3] -0.103 | [5] -0.276

FAM102B (UniProt Q5T8I3)
inactive: ralimetinib -0.037 | [1] 0.295 | [3] 0.031

EPG5 (UniProt Q9HCE0)
inactive: ralimetinib -0.089 | [1] -0.025 | [3] 0.045

FAM172A (UniProt Q8WUF8)
inactive: ibrutinib -0.056 | [1] 0.008 | [4] -0.059

FAM204A (UniProt Q9H8W3)
inactive: [1] 0.072 | [2] 0.116 | [5] 0.075

EVPL (UniProt Q92817)
inactive: ralimetinib 0.266 | [3] -0.079 | [4] -0.052

EPS8L1 (UniProt Q8TE68)
inactive: ibrutinib 0 | [1] 0.02

EPC1 (UniProt Q9H2F5)
inactive: ralimetinib -0.008 | [3] -0.138

EPS8L2 isoform 3 (UniProt Q9H6S3)
inactive: ralimetinib -0.008 | [1] 0.006 | [2] -0.052 | [3] -0.006 | [5] 0.025

FAM126A (UniProt Q9BYI3)
inactive: [6] -0.076 | ralimetinib -0.029 | [1] -0.014 | [2] -0.108 | [3] 0.057

F13B (UniProt P05160)
inactive: [5] -0.255

F13A1 (UniProt P00488)
inactive: ibrutinib 0.242 | [4] -0.027 | [5] -0.082

FAM171A2 (UniProt A8MVW0)
inactive: ralimetinib 0.193 | [2] 0.034 | [3] -0.158

EYA3 (UniProt Q99504)
inactive: [6] 0.169 | [5] 0.018

ERI3 (UniProt H0Y4B0)
inactive: ibrutinib 0.088 | [1] 0.26 | [2] 0.234

FAM110A (UniProt Q9BQ89)
inactive: [1] -0.006

FAM120B (UniProt Q96EK7)
inactive: [6] 0.043 | [2] 0.055

ERF (UniProt P50548)
inactive: [1] 0.093 | [2] 0.186 | [5] 0.094

EPHB4 (UniProt P54760)
inactive: ralimetinib 0.131 | [3] 0.241

Copied from the results shown (three entries):
FAM204A (UniProt Q9H8W3)
inactive: [1] 0.072 | [2] 0.116 | [5] 0.075

EVPL (UniProt Q92817)
inactive: ralimetinib 0.266 | [3] -0.079 | [4] -0.052

EPS8L1 (UniProt Q8TE68)
inactive: ibrutinib 0 | [1] 0.02

The list goes on.

F2R (UniProt P25116)
inactive: [6] 0.202 | [5] -0.019

F2RL3 (UniProt Q96RI0)
inactive: [6] 0.02 | ralimetinib -0.084 | [2] 0.081 | [3] 0.021 | [5] 0.1

FAM135A (UniProt Q9P2D6)
inactive: [1] 0.009 | [2] 0.051

FAM178B (UniProt Q8IXR5)
inactive: [2] -0.027

ERAP2 (UniProt Q6P179)
inactive: [1] -0.015 | [2] -0.044 | [4] -0.095

FAM107B isoform 2 (UniProt Q9H098)
inactive: [1] -0.01

EPB41L5 (UniProt Q9HCM4)
inactive: [1] -0.003 | [2] -0.214
